At least one compound was matched to its structure with a doubt left.
Test system: p53^+/+ HCT116 colorectal carcinoma cells
Assay: Western blotting of p53 pathway proteins in treated p53+/+ HCT116 cells
Type: cell-based
Details: 6-24 hours
Procedure: Cells were collected and centrifuged at 3,000 rpm for 5 minutes at 4° C., and washed in PBS (pH 7.2). The cell pellet was solubilized in lysis buffer (20 mM Tris, pH 7.2, 0.5% deoxycholate, 1% Triton X-100, 0.1% SDS, 150 mM NaCl, 1 mM EDTA) containing proteases inhibitors (Complete, Roche Applied Science) for 30 min at 4° C. The lysate was cleared by centrifugation for 15 minutes, and protein concentration was evaluated using a Bio-Rad protein assay system (Bio-Rad Laboratories, Hercules, Calif.). […] Cells were analyzed for hypodiploid DNA content by propidium iodide staining and flow cytometry as described in O'Connor et al., Cancer Cell, 2:43-54 (2002). […]
To explore the link between GSK3β inhibition and p53 modulation, in vivo, HCT116 cells were treated with Li, TDZD or SB216763, and analyzed cells by Western blotting. p53^+/+ or p53^−/− HCT116 cells were incubated with the following GSK3β inhibitors, LiCl (Sigma, 30 mM), thiadiazolidinone-8 (TDZD) (Calbiochem, 0-20 μM), or SB216763 (Sigma, 20 μM), cells were harvested after 6-24 hours, and samples were analyzed by Western blotting as described in Example 2. […]

Cn1cnc2c(NCc3ccccc3)nc(NCCO)nc21 [olomoucine]
p53 expression (Western blot): elevation of p53 levels

Source: US20060204980A1, “Colorectal cancer therapies” (priority 2004, published 2006)
